Results: PubChem BioAssay AID1487 (National Center for Advancing Translational Sciences (NCATS), 2009)
The list shows a part of the results. These are further read-outs of the screen, such as a control signal, another cell line or another target. No call is given for them. The list favours compounds with an active or inconclusive main result. Potencies come from curve fits of mixed quality, noted in brackets.

Experiment: qHTS Assay for Modulators of Lamin A Splicing
Conditions: HeLa LMNA splicing GFP/RFP minigene ratio, 48 h
Procedure, shortened: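 Read-out is the ratio of GFP to DsRed2 object intensity, acquired by 488 nm laser-scanning cytometry on HeLa lamin A-EGFP minigene reporter cells. Compound incubation 48 hrs at 37 °C in Opti-MEM with 2% FBS; DMSO 0.5% final.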

[1] = measured here: RFP viability control channel
[2] = measured here: GFP splicing reporter channel

Row | SMILES | AC50 [1] | AC50 [2]
1 | Cn1c(=O)c2[nH]c(Nc3ccccc3)nc2n(C)c1=O | 11.2 µM [rising, single point] | 
2 | N#CCSc1nc2cc(C(=O)N3CCC(C(N)=O)CC3)ccc2c2nc3ccccc3n12 |  | 8.91 µM [rising, partial curve]
3 | CN(c1ccccc1)S(=O)(=O)c1ccc(Cl)c(C(=O)NCCc2c[nH]c3ccccc23)c1 | 12.6 µM [rising, partial curve] | 3.55 µM [rising, full curve]
4 | Cc1cc(C)nc(NC(=O)c2ccc([N+](=O)[O-])o2)n1 | 14.1 µM [falling, partial curve] | 10 µM [falling, partial curve, poor fit]
5 | C=CCn1c(SCc2nc3scc(-c4ccccc4)c3c(=O)[nH]2)nnc1-c1ccccc1F | 17.8 µM [rising, single point] | 
6 | COc1ccc(OC)c(/C=C/C(=O)OCC(=O)Nc2cccc(C(C)=O)c2)c1 | 11.2 µM [rising, partial curve, poor fit] | 35.5 µM [rising, single point]
7 | O=C(O)c1cc(-c2ccc(Cl)cc2)n(-c2ccc(Cl)cc2)n1 |  | 2.51 µM [rising, partial curve, poor fit]
8 | CCCSC1=C(C#N)C(c2ccc(Cl)cc2Cl)CC(=O)N1 (centres undefined) |  | 14.1 µM [rising, single point]
9 | O=C(CNC(=O)c1ccccc1F)N/N=C/c1cc(Br)ccc1OC(=O)/C=C/c1ccco1 | 25.1 µM [rising, single point] | 11.2 µM [rising, single point]
10 | CC1(C(=O)Nc2ccccc2)Cc2ccccc2C(=O)O1 (centres undefined) | 0.0562 µM [falling, full curve, poor fit] | 
11 | COc1ccc(/C=C(\C#N)C(=O)NC2CCS(=O)(=O)C2)cc1OC (centres undefined) | 20 µM [rising, single point] | 
12 | COc1cc2c(cc1C(F)(F)F)N(C(=O)Nc1cc(F)cc(-c3cccnc3)c1)CC2 | 10 µM [falling, partial curve] | 11.2 µM [falling, partial curve]
13 | COc1ccc(-c2cc(-c3n[nH]c(=S)n3-c3cc(OC)ccc3OC)[nH]n2)cc1 | 14.1 µM [rising, single point] | 10 µM [rising, partial curve]
14 | O=C1C2C3C=CC(C3=C(c3ccccc3)c3ccccc3)C2C(=O)N1Cc1ccccc1 (centres undefined) | 4.47 µM [rising, full curve] | 5.62 µM [rising, single point]
15 | Cc1nc(NC(=O)c2cccs2)ccc1Br | 0.251 µM [rising, full curve, poor fit] | 
16 | COC(=O)c1ccccc1NC(=O)C1CCCN(S(=O)(=O)c2ccc(F)cc2)C1 (centres undefined) | 35.5 µM [rising, single point] | 
17 | O=C(CSc1nc2ccccc2[nH]1)Nc1nc(-c2ccccc2)c(-c2ccccc2)o1 | 10 µM [rising, partial curve] | 
18 | O/N=C(\c1ccc2c(c1)OCCO2)C1CCCCC1 | 3.16 µM [rising, single point] | 
19 | CCOc1cc(/C=N/Nc2nc(-c3cccc(S(=O)(=O)N4CCCC4)c3)cs2)ccc1O | 12.6 µM [rising, single point] | 
20 | CCC(Sc1nc(C)cc(C)n1)C(=O)NC1=NN=C(c2ccc(C)cc2)CS1 (centres undefined) | 35.5 µM [falling, single point] | 35.5 µM [falling, single point]
21 | CCCc1cc(=O)n2c([nH]c3ccccc32)c1C#N | 5.01 µM [rising, partial curve] | 
22 | CC(C)NS(=O)(=O)c1ccc(CCC(=O)Nc2cc(Cl)ccc2Oc2ccccc2)cc1 | 15.8 µM [rising, single point] | 11.2 µM [rising, partial curve, poor fit]
23 | CN1C(=O)C2(OCC(COc3ccc(Cl)cc3)O2)c2ccccc21 (centres undefined) | 15.8 µM [rising, single point] | 
24 | CCN(CC)S(=O)(=O)c1ccc(N2CCOCC2)c(NS(=O)(=O)c2ccc(C)cc2)c1 | 2.82 µM [rising, full curve, poor fit] | 1.78 µM [rising, full curve, poor fit]
25 | COC(=O)c1ccc(NC(=S)N2CCN(Cc3ccccc3OC)CC2)cc1 | 0.316 µM [falling, partial curve, poor fit] | 0.282 µM [falling, partial curve, poor fit]
26 | COc1ccccc1CNc1nc(-c2cccc(NS(C)(=O)=O)c2)nc2ccccc12 | 35.5 µM [falling, single point] | 25.1 µM [falling, single point]
27 | CN(C)c1ccc(/C=C2\SC(=S)N(Nc3ncc(C(F)(F)F)cc3Cl)C2=O)cc1 | 11.2 µM [falling, partial curve, poor fit] | 

Row | SMILES | AC50 [1] | AC50 [2]
28 | Cc1nn(-c2nnc(NCc3ccccc3)nn2)c(C)c1Br | 1.26 µM [falling, full curve, poor fit] | 
29 | O=C(CCN1C(=O)C2C3C=CC(C3)C2C1=O)Oc1ccc2ccccc2c1 (centres undefined) |  | 6.31 µM [rising, partial curve, poor fit]
30 | CCOC(=O)c1sc(NC(=S)NC(=O)C2CC2)cc1C | 0.708 µM [rising, full curve, poor fit] | 
31 | C1=C(CCNc2ncnc3c2[nH]c2ccccc23)CCCC1 | 5.62 µM [rising, single point] | 
32 | CC1(C)Cc2c(sc3ncnc(NNC(=S)NCc4ccccc4)c23)CO1 | 1.41 µM [rising, partial curve, poor fit] | 
33 | OCCN1CCN(Cc2cccc(Oc3ccc(Cl)cc3)c2)CC1 | 22.4 µM [rising, single point] | 
34 | Cc1cc(=O)oc2cc(OCC(=O)OCC(=O)NC3CC3)ccc12 | 0.891 µM [falling, full curve] | 
35 | CCN(CC(=O)c1c(N)n(C)c(=O)n(C)c1=O)c1cccc2ccccc12 | 22.4 µM [rising, single point] | 
36 | COc1cc(C2C(C(=O)Nc3ccccc3C)=C(C)Nc3nc(SCc4cc(C)ccc4C)nn32)ccc1O (centres undefined) | 35.5 µM [falling, single point] | 35.5 µM [falling, single point]
37 | CCOC(=O)/C=c1\s/c(=C\c2ccccc2C)c(=O)n1CC(=O)NCc1ccc2c(c1)OCO2 | 3.16 µM [rising, single point] | 
38 | O=C(CSc1ccccn1)N/N=C/C=C/c1ccccc1 | 17.8 µM [rising, single point] | 
39 | O=C(Nc1ccc2c(c1)CCC2)C1CCN(c2ncccn2)CC1 | 8.91 µM [rising, partial curve] | 10 µM [rising, partial curve, poor fit]
40 | CC/C(=N\NC(=O)c1ccc(CN(C)S(=O)(=O)c2ccc(C)cc2)cc1)c1ccc(OC(F)F)cc1 | 35.5 µM [rising, partial curve] | 
41 | O=C(c1cn(-c2ccccc2)nc1-c1cccs1)N1CCN(c2ccccc2)CC1 | 35.5 µM [rising, single point] | 
42 | O=S(=O)(N/N=C/c1ccccc1OCc1ccc(Cl)cc1)c1ccccc1 | 15.8 µM [rising, partial curve] | 10 µM [rising, partial curve]
43 | CCOC(=O)c1ccc(NC(=S)N2CCN(c3ccc(N4CCOCC4)nn3)CC2)cc1 | 3.98 µM [falling, partial curve, poor fit] | 3.55 µM [falling, partial curve, poor fit]
44 | O=C(NCCc1c[nH]c2ccccc12)C(=O)NCC1OCCCN1S(=O)(=O)c1ccc(F)cc1 (centres undefined) | 17.8 µM [rising, partial curve] | 0.224 µM [rising, full curve, poor fit]
45 | S=C(Nc1ccc(Nc2ccccc2)cc1)NC1CCCCCC1 | 3.55 µM [rising, single point] | 
46 | CSc1cccc(NC(=O)/C=C/c2ccccc2)c1 |  | 0.0316 µM [falling, full curve, poor fit]
47 | CCOC(=O)c1c(C)[nH]c(C(=O)N/N=C/c2ccc(Br)cc2)c1C | 0.158 µM [rising, full curve, poor fit] | 
48 | Fc1cccc(C[n+]2csc3ccccc32)c1 | 35.5 µM [falling, single point] | 
49 | COc1cc(-c2nc(CN3CCCN(C(=O)c4ccco4)CC3)c(C)o2)ccc1F | 0.00501 µM [falling, full curve, poor fit] | 
50 | O=C(c1nn2c(C(F)(F)F)cc(-c3cccs3)nc2c1Br)N1CCCc2ccccc21 | 5.62 µM [falling, single point] | 1.58 µM [falling, partial curve]
51 | COCCN1C(=O)N[C@@H](CCc2ccccc2)C(C(C)=O)=C1C | 12.6 µM [rising, single point] | 15.8 µM [rising, single point]
52 | O=C1C=C(NCc2ccccc2)c2ccccc2C1=O | 12.6 µM [falling, partial curve] | 10 µM [falling, partial curve, poor fit]
53 | Cc1ccccc1C(=O)N1CCN(c2ccc(NC(=O)CSc3ccc(Cl)cc3)cc2)CC1 |  | 0.2 µM [falling, full curve]
54 | CC(=O)c1cccc(NC(=O)COC(=O)c2cccs2)c1 |  | 89.1 µM [falling, partial curve]

Gathered by group, those above containing a CF3 group (3)
Row | SMILES | AC50 [1] | AC50 [2]
12 | COc1cc2c(cc1C(F)(F)F)N(C(=O)Nc1cc(F)cc(-c3cccnc3)c1)CC2 | 10 µM [falling, partial curve] | 11.2 µM [falling, partial curve]
27 | CN(C)c1ccc(/C=C2\SC(=S)N(Nc3ncc(C(F)(F)F)cc3Cl)C2=O)cc1 | 11.2 µM [falling, partial curve, poor fit] | 
50 | O=C(c1nn2c(C(F)(F)F)cc(-c3cccs3)nc2c1Br)N1CCCc2ccccc21 | 5.62 µM [falling, single point] | 1.58 µM [falling, partial curve]
